Results deposited as PubChem BioAssay AID652272 (Drosophila RNAi Screening Center, 2013).
Aim: 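Genome-wide knock-down search for components of Hedgehog signalling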 (primary screen). System: Drosophila clone 8 (Cl8) cells. Knock-down reagent: long dsRNA against Drosophila genes. Read-out: 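Firefly light from a Hedgehog-responsive ptc promoter reporter and Renilla reference light, both read on a plate reader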. Scale: firefly Hh reporter signal: higher = more ptc reporter light; Renilla reference signal: higher = more Renilla control light. Call rule: 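Hit when the z-score averaged over two replicates is under -2 or over +3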. Meaning of the calls: active = hit: reporter lowered or raised; inactive = not a hit.
The deposit covers about 21,000 reagents; this is a random part of those that have a named target and a result. Of all reagents, 503 (2.4%) were called active. 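Raw plate light values, not normalised; calls rest on replicate z-scores that were not deposited; hits include reporter decreases as well as increases.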 Not stated in the record: the amount of reagent, the time to read-out.

| Gene | PubChem SID | firefly Hh reporter signal, replicate 1 | firefly Hh reporter signal, replicate 2 | firefly Hh reporter signal, replicate 3 | Renilla reference signal, replicate 1 | Renilla reference signal, replicate 2 | Outcome |
| --- | --- | --- | --- | --- | --- | --- | --- |
| CG18327 | SID104186514 | 96705 | 36049 | – | 2427 | 276 | inactive |
| CG14630 | SID104197958 | 71661 | 1.39e5 | – | 2245 | 5760 | inactive |
| CG14630 | SID104198445 | 69648 | 1.18e5 | – | 2320 | 5538 | inactive |
| Ir7c (Ionotropic receptor 7c) | SID104197799 | 66025 | 1.80e5 | – | 1248 | 8119 | inactive |
| CG42613 | SID104193124 | 39434 | 1.22e5 | – | 9090 | 3834 | inactive |
| CG42613 | SID104194561 | 6.23e5 | 1.33e5 | – | 29223 | 4000 | inactive |
| CG42613 | SID104195594 | 1.27e5 | 80180 | – | 2903 | 3031 | inactive |
| CG13369 | SID104198273 | 63642 | 1.75e5 | – | 3014 | 9974 | inactive |
| CG33270 | SID104190376 | 61924 | 60064 | 49629 | 4631 | 2672 | inactive |
| Ntl (Neurotransmitter transporter-like) | SID104182795 | 6.70e5 | 1.28e5 | – | 4992 | 4992 | inactive |
| Sap47 (Synapse-associated protein 47kD) | SID104196642 | 1.03e5 | 64508 | – | 2592 | 2308 | inactive |
| CG14135 | SID104189932 | 44796 | 73056 | 59392 | 8368 | 4763 | inactive |
| CG1764 | SID104199571 | 1.10e5 | 95048 | – | 3034 | 2525 | inactive |
| alpha-Est4aPsi (pseudo) | SID104192265 | 1.52e5 | – | – | 3239 | – | inactive |
| qkr54B (quaking related 54B) | SID104187462 | 76421 | 59504 | – | 1928 | 4059 | inactive |
| ATPsynE (ATP synthase, subunit E) | SID104195268 | 1.61e5 | 81948 | – | 5824 | 3644 | inactive |
| Hsp83 (Heat shock protein 83) | SID104188456 | 2.06e5 | 67509 | – | 3008 | 1208 | inactive |
| CG15905 | SID104186383 | 1.13e5 | 48644 | – | 3072 | 4113 | inactive |
| mmy (mummy) | SID104181794 | 61430 | 58201 | – | 2407 | 2300 | inactive |
| mia (meiosis I arrest) | SID104191929 | 1.08e5 | 65768 | – | 4140 | 2600 | inactive |
| TTLL3B (Tubulin tyrosine ligase-like 3B) | SID104181925 | 60107 | 51803 | – | 1773 | 4774 | inactive |
| CG11839 | SID104194190 | 6.16e5 | 92997 | – | 32118 | 3239 | inactive |
| teq (Tequila) | SID104190090 | 44851 | 45533 | – | 3789 | 1264 | inactive |
| teq (Tequila) | SID104191093 | 38720 | 56514 | – | 3894 | 1842 | inactive |
| teq (Tequila) | SID104191094 | 62131 | 59082 | – | 4739 | 3098 | inactive |
| Suv3 (Suv3 helicase) | SID104192127 | 1.21e5 | 75488 | – | 4592 | 3000 | inactive |
| CG10909 | SID104194074 | 1.17e5 | 91666 | – | 4311 | 2216 | inactive |
| CG8774 | SID104196237 | 1.31e5 | 85569 | – | 5840 | 1761 | inactive |
| Oscillin | SID104182793 | 63926 | 1.00e5 | – | 2624 | 4290 | inactive |
| CG4734 | SID104186677 | 1.53e5 | 70859 | – | 3924 | 5479 | inactive |
| fy (fuzzy) | SID104183325 | 75504 | 46389 | – | 2077 | 4012 | inactive |
| CG42523 | SID104180043 | 7.12e5 | 2.11e5 | – | 33606 | 7665 | inactive |
| Kaz (Katazuke) | SID104194429 | 6.10e5 | 1.33e5 | – | 27787 | 3206 | inactive |
| Schip1 (Schwannomin interacting protein 1) | SID104182643 | 1.19e5 | 51730 | – | 3349 | 5585 | inactive |
| Tsp2A (Tetraspanin 2A) | SID104198376 | 69491 | 1.22e5 | – | 2000 | 5114 | inactive |
| CG12853 | SID104185985 | 1.36e5 | 63068 | – | 3329 | 5928 | inactive |
| CG13720 | SID104188121 | 18933 | 40408 | – | 2609 | 3104 | inactive |
| CG5376 | SID104195574 | 7.81e5 | 1.62e5 | – | 39285 | 363 | inactive |
| Ugt37A1 (UDP-glycosyltransferase family 37 member A1) | SID104181906 | 1.04e5 | 66796 | – | 2773 | 6146 | inactive |
| CG17652 | SID104180303 | 1.73e5 | 1.24e5 | – | 3912 | 2889 | inactive |
| Uxt (Uxt prefoldin-like subunit) | SID104181754 | 91232 | 64005 | – | 2765 | 5577 | inactive |
| flap (flapper) | SID104183710 | 99668 | 3.13e5 | – | 2925 | 13372 | inactive |
| flap (flapper) | SID104183879 | 49554 | 58089 | – | 2520 | 3097 | inactive |
| Sgsh (N-sulfoglucosamine sulfohydrolase) | SID104194563 | 4.33e5 | 1.05e5 | – | 21655 | 2752 | inactive |
| CG3655 | SID104197468 | 6.29e5 | 3.26e5 | – | 26978 | 6296 | inactive |
| CG3655 | SID104197973 | 72928 | 1.88e5 | – | 2349 | 8057 | inactive |
| CG3655 | SID104198269 | 64304 | 1.42e5 | – | 1776 | 6048 | inactive |
| CG13059 | SID104189734 | 1.18e5 | – | – | 7462 | 3857 | inactive |
| CG30487 | SID104185169 | 1.31e5 | 3.23e5 | – | 3485 | 13063 | inactive |
| Hr83 (Hormone receptor 83) | SID104192313 | 64004 | 85879 | – | 2112 | 2464 | inactive |
| sel (seele) | SID104186024 | 84169 | 4.73e5 | 94819 | 3442 | 26902 | inactive |
| CG17636 | SID104200440 | 69297 | 1.63e5 | – | 1722 | 7570 | inactive |
| Hsdl2 (Hydroxysteroid dehydrogenase like 2) | SID104195631 | 87113 | 78498 | – | 2282 | 1991 | inactive |
| Kmn1 (kinetochore Mis12-Ndc80 network component 1) | SID104199458 | 84152 | 2.08e5 | – | 3024 | 8121 | inactive |
| CG15373 | SID104199455 | 75264 | 2.26e5 | – | 1827 | 9460 | inactive |
| CG43110 | SID104185453 | 1.04e5 | 2.24e5 | – | 2807 | 9126 | inactive |
| CG4363 | SID104184257 | 79243 | 47884 | – | 2385 | 4869 | inactive |
| Ets65A (Ets at 65A) | SID104189760 | 46194 | 31595 | – | 4699 | 2237 | inactive |
| Ets65A (Ets at 65A) | SID104190530 | 51904 | 64535 | – | 2680 | 2493 | inactive |
| Ets65A (Ets at 65A) | SID104190956 | 83586 | 55030 | – | 2757 | 2451 | inactive |
| Nf-YB (Nuclear factor Y-box B) | SID104181849 | 92717 | 69699 | – | 2139 | 4979 | inactive |
| Pka-R2 (Protein kinase, cAMP-dependent, regulatory subunit type 2) | SID104187301 | 1.53e5 | 79536 | – | 3386 | 5308 | inactive |
| CG3732 | SID104184202 | 57426 | 48128 | – | 3956 | 3050 | active |
| Adck5 (aarF domain containing kinase 5) | SID104190682 | 37207 | 50861 | 72786 | 4471 | 5521 | inactive |
| Polr2C (RNA polymerase II subunit C) | SID104183207 | 60397 | 42320 | – | 2460 | 1472 | inactive |
| CG3618 | SID104191538 | 67645 | 48339 | – | 2843 | 1973 | inactive |
| mtg (mind the gap) | SID104196048 | 86933 | 1.04e5 | – | 2822 | 3078 | inactive |
| Ugt49B1 (UDP-glycosyltransferase family 49 member B1) | SID104184253 | 87861 | 59860 | – | 2029 | 5530 | inactive |
| Acat1 (Acetyl-CoA acetyltransferase 1) | SID104197558 | 80875 | 78331 | – | 1910 | 1992 | inactive |
| Tmlh (Trimethyllysine hydroxylase) | SID104195355 | 5.93e5 | 69346 | – | 29638 | 1965 | inactive |
| CG18577 | SID104195144 | 60338 | 85664 | – | 2459 | 2593 | inactive |
| CG17734 | SID104195048 | 1.61e5 | 7.10e5 | 1.53e5 | 4949 | 4994 | inactive |
| CG42390 | SID104195658 | 1.10e5 | 49143 | – | 4144 | 1777 | inactive |

Reformatted: 9 of the entries above
Gene	PubChem SID	firefly Hh reporter signal, replicate 1	firefly Hh reporter signal, replicate 2	firefly Hh reporter signal, replicate 3	Renilla reference signal, replicate 1	Renilla reference signal, replicate 2	Outcome
Nf-YB (Nuclear factor Y-box B)	SID104181849	92717	69699		2139	4979	inactive
Pka-R2 (Protein kinase, cAMP-dependent, regulatory subunit type 2)	SID104187301	1.53e5	79536		3386	5308	inactive
CG3732	SID104184202	57426	48128		3956	3050	active
Adck5 (aarF domain containing kinase 5)	SID104190682	37207	50861	72786	4471	5521	inactive
Polr2C (RNA polymerase II subunit C)	SID104183207	60397	42320		2460	1472	inactive
CG3618	SID104191538	67645	48339		2843	1973	inactive
mtg (mind the gap)	SID104196048	86933	1.04e5		2822	3078	inactive
Ugt49B1 (UDP-glycosyltransferase family 49 member B1)	SID104184253	87861	59860		2029	5530	inactive
Acat1 (Acetyl-CoA acetyltransferase 1)	SID104197558	80875	78331		1910	1992	inactive
